Results deposited as PubChem BioAssay AID1259254 (NCATS, 2017)

- Test: 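Genome-wide screen for genes that prevent DNA re-replication in cancer cells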 (primary screen)
- System: human HCT116 colorectal cancer cells
- Reagent: single siRNA against human genes
- Time to read-out: 3 days
- Detection: 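Nuclei stained with Hoechst and imaged; cell-cycle phase assigned by DNA content; G2 share scaled per plate, non-targeting siRNA 0%, GMNN siRNA 100%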
- Scale: G2 robust z-score: higher = more G2 cells, more excess DNA replication
- Call rule: 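Active siRNAs have a G2 robust z of 5 or more median absolute deviations over the median, which in these data means about 38% or higher of GMNN control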
Here is a random part of about 59,000 reagents. About 1,550 of them (2.6%) count as active. 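G2 share is only a proxy for re-replication; each gene was hit by three separate siRNAs, and active genes were retested.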 The numbers tell different reagents against one gene apart. Not all columns of the deposit are shown. Not given: the amount of reagent.

no.	target gene	reagent	G2 robust z-score	Call
1	NEDD4 (NEDD4 E3 ubiquitin protein ligase)	1	1.66	inactive
2	NEDD4 (NEDD4 E3 ubiquitin protein ligase)	2	-0.0328	inactive
3	NEDD4 (NEDD4 E3 ubiquitin protein ligase)	3	-0.202	inactive
4	IRF2BP1 (interferon regulatory factor 2 binding protein 1)	1	-1.01	inactive
5	IRF2BP1 (interferon regulatory factor 2 binding protein 1)	2	-0.81	inactive
6	IRF2BP1 (interferon regulatory factor 2 binding protein 1)	3	2.19	inactive
7	MBOAT7	1	-0.652	inactive
8	MBOAT7	2	4	inactive
9	MBOAT7	3	-0.0811	inactive
10	DOCK6 (dedicator of cytokinesis 6)	1	-0.336	inactive
11	DOCK6 (dedicator of cytokinesis 6)	2	1.27	inactive
12	DOCK6 (dedicator of cytokinesis 6)	3	1.65	inactive
13	PEX2 (peroxisomal biogenesis factor 2)	1	-0.0799	inactive
14	PEX2 (peroxisomal biogenesis factor 2)	2	0.409	inactive
15	PEX2 (peroxisomal biogenesis factor 2)	3	-1.01	inactive
16	MCMBP (minichromosome maintenance complex binding protein)	1	0.00484	inactive
17	MCMBP (minichromosome maintenance complex binding protein)	2	-0.616	inactive
18	MCMBP (minichromosome maintenance complex binding protein)	3	3.31	inactive
19	CAV1 (caveolin 1)	1	-0.967	inactive
20	CAV1 (caveolin 1)	2	-0.866	inactive
21	CAV1 (caveolin 1)	3	-1.11	inactive
22	MRPL52 (mitochondrial ribosomal protein L52)	1	-0.0809	inactive
23	MRPL52 (mitochondrial ribosomal protein L52)	2	1.66	inactive
24	MRPL52 (mitochondrial ribosomal protein L52)	3	0.862	inactive
25	DMRTA2 (DMRT like family A2)	1	0.815	inactive
26	DMRTA2 (DMRT like family A2)	2	3.66	inactive
27	DMRTA2 (DMRT like family A2)	3	-0.747	inactive

Targets above whose gene name begins with D or d:
target gene	reagent	G2 robust z-score	Call
DOCK6 (dedicator of cytokinesis 6)	1	-0.336	inactive
DOCK6 (dedicator of cytokinesis 6)	2	1.27	inactive
DOCK6 (dedicator of cytokinesis 6)	3	1.65	inactive
DMRTA2 (DMRT like family A2)	1	0.815	inactive
DMRTA2 (DMRT like family A2)	2	3.66	inactive
DMRTA2 (DMRT like family A2)	3	-0.747	inactive

More results:
no.	target gene	reagent	G2 robust z-score	Call
28	BEST1 (bestrophin 1)	1	-0.319	inactive
29	BEST1 (bestrophin 1)	2	-0.871	inactive
30	BEST1 (bestrophin 1)	3	0.893	inactive
31	C1QTNF9B (C1q and TNF related 9B)	1	0.0191	inactive
32	C1QTNF9B (C1q and TNF related 9B)	2	-0.627	inactive
33	C1QTNF9B (C1q and TNF related 9B)	3	-0.536	inactive
34	PLPPR4 (phospholipid phosphatase related 4)	1	-1.32	inactive
35	PLPPR4 (phospholipid phosphatase related 4)	2	0.285	inactive
36	PLPPR4 (phospholipid phosphatase related 4)	3	1.41	inactive
37	NOL6 (nucleolar protein 6)	1	2.02	inactive
38	NOL6 (nucleolar protein 6)	2	6.21	active
39	NOL6 (nucleolar protein 6)	3	0.269	inactive
40	BIK (BCL2 interacting killer)	1	-1.31	inactive
41	BIK (BCL2 interacting killer)	2	0.804	inactive
42	BIK (BCL2 interacting killer)	3	-0.786	inactive
43	BST1 (bone marrow stromal cell antigen 1)	1	-0.157	inactive
44	BST1 (bone marrow stromal cell antigen 1)	2	3.74	inactive
45	BST1 (bone marrow stromal cell antigen 1)	3	-1.38	inactive
46	UMOD (uromodulin)	1	0.177	inactive
47	UMOD (uromodulin)	2	3.44	inactive
48	UMOD (uromodulin)	3	0.281	inactive
49	ZNF467 (zinc finger protein 467)	1	-0.331	inactive
50	ZNF467 (zinc finger protein 467)	2	1.19	inactive
51	ZNF467 (zinc finger protein 467)	3	4.86	inactive
52	ALPG (alkaline phosphatase, germ cell)	1	12.1	active
53	ALPG (alkaline phosphatase, germ cell)	2	-0.799	inactive
54	ALPG (alkaline phosphatase, germ cell)	3	0.0726	inactive
55	ADPRM (ADP-ribose/CDP-alcohol diphosphatase, manganese dependent)	1	-0.492	inactive
56	ADPRM (ADP-ribose/CDP-alcohol diphosphatase, manganese dependent)	2	1.14	inactive
57	ADPRM (ADP-ribose/CDP-alcohol diphosphatase, manganese dependent)	3	-0.997	inactive
58	TFRC (transferrin receptor)	1	-0.737	inactive
59	TFRC (transferrin receptor)	2	-0.576	inactive
60	TFRC (transferrin receptor)	3	-0.496	inactive
61	MARCHF3 (membrane associated ring-CH-type finger 3)	1	1.71	inactive
62	MARCHF3 (membrane associated ring-CH-type finger 3)	2	2.08	inactive
63	MARCHF3 (membrane associated ring-CH-type finger 3)	3	-0.654	inactive
64	ARPP19P1 (ARPP19 pseudogene 1)	1	0.729	inactive
65	ARPP19P1 (ARPP19 pseudogene 1)	2	-0.259	inactive
66	ARPP19P1 (ARPP19 pseudogene 1)	3	-0.086	inactive
67	GPR171 (G protein-coupled receptor 171)	1	1.41	inactive
68	GPR171 (G protein-coupled receptor 171)	2	2.34	inactive
69	GPR171 (G protein-coupled receptor 171)	3	0.732	inactive
